The values below come from article PMC5727073.

The chains behind the UniProt entries cited, without tags or fusion partners. Residues count along the entry.
UniProt P63165, residues 1-97: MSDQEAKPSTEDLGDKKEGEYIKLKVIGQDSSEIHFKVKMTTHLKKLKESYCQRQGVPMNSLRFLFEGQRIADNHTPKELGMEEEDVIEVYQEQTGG

These are yes or no findings as the source states them, for the method shown. Binding seen in cells or lysates may run through a third protein. Some entries that bind do so weakly or less than the wild type. Sequences can lack the tags named with a protein.

The target in the experiment is T1, Atac2-V5 (Mus musculus) (UniProt Q8CID0).
T1 sequence: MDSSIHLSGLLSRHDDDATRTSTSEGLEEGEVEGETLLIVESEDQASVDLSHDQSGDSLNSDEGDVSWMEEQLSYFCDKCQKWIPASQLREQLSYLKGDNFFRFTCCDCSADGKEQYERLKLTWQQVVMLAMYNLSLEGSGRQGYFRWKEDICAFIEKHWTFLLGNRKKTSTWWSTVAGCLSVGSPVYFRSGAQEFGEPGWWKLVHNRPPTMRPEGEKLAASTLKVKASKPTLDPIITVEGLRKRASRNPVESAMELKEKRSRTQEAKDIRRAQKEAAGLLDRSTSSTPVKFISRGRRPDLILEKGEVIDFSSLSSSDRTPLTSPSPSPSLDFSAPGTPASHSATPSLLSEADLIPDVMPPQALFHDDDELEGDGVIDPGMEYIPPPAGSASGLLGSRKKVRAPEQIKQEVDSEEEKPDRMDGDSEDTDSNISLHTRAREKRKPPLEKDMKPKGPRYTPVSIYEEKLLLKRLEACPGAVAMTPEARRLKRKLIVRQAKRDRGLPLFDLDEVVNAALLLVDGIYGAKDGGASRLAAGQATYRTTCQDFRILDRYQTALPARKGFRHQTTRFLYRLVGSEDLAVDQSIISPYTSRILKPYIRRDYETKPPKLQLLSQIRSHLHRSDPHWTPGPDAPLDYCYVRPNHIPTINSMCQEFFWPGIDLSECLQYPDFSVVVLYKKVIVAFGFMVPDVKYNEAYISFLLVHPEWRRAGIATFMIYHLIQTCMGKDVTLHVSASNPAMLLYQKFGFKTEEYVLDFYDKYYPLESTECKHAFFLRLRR
Briefly: co-IP; NIH3T3 lysates (NP-40 lysis buffer with 20 mM N-ethylmaleimide), immunoprecipitation of tagged Atac2 (anti-V5), denatured, SDS-PAGE and Western blot with anti-V5 and anti-Myc; SUMO seen in upshifted bands (covalent conjugate). (Immunoblotting shows a protein as a band on a membrane.)

Regarding Myc-SUMO1 (from UniProt P63165 1-97), the binding result is listed as “binds”.
The value for “Venus-Myc-SUMO1 (from UniProt P63165 1-97)” was “binds”.
